Measured values published in PubChem BioAssay AID1671190 (National Center for Advancing Translational Sciences (NCATS), 2021).
About 6,100 (1.1%) of roughly 580,000 compounds were called active. This list was built around the results that the source calls inconclusive (neither active nor inactive); the mix of calls is not that of the screen. Calls follow the shape of the dose curve; as a rule, active = well fitted inhibition curve with a large enough effect; inconclusive = small, poorly fitted or top-dose-only effect, or another doubt; inactive = no such curve, though single readings can be large or run the other way. Where the call is inconclusive, the potency comes from a doubtful curve fit.

Protein sequences, listed by entry. Tags and fused reporters are not part of them. Lines headed by an entry give the natural chain unless they say otherwise; changes in a name come on top.
UniProt P18054: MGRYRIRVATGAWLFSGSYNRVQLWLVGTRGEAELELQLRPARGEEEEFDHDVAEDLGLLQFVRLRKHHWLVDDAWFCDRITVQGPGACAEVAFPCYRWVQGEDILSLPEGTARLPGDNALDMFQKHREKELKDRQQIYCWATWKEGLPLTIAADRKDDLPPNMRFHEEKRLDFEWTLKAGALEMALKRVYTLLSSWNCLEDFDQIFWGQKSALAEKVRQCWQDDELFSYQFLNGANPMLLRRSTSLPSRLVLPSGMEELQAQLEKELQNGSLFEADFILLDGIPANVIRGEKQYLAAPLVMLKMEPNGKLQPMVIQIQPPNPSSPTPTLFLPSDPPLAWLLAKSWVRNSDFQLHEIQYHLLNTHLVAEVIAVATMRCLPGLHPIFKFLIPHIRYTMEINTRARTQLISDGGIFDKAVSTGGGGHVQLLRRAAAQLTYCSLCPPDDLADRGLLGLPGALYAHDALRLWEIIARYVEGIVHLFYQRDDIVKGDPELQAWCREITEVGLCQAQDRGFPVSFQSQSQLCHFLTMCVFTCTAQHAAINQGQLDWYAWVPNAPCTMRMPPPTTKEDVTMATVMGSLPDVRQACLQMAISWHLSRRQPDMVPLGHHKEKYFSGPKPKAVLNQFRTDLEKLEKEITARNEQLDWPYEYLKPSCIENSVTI

Biological target: Polyunsaturated fatty acid lipoxygenase ALOX12 (Homo sapiens) (UniProt P18054)
Experiment: Primary qHTS assay for inhibitors of human arachidonate 12S-lipoxygenase (ALOX12): Round 2
Details: purified 12hLO, xylenol orange hydroperoxide absorbance; activity change, negative = inhibition: at 108 µM (top of the series) unless noted
In short: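 Hydroperoxide product was detected by ferrous iron/xylenol orange as the 573 to 405 nm absorbance ratio. Arachidonic acid at 40 uM (final) was turned over for 30 min at room temperature by 150 nM human 12hLO, pH 7.0 Hepes buffer, after 15 min compound preincubation.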
% is scaled to controls: 0 for no effect and ±100 for the full control effect; potency is read from the fitted curve at half-maximal effect.

Q: With `CCN(c1ccc(NC(=O)COC(=O)C2CCN(c3ccc(C(F)(F)F)cn3)CC2)cc1)C(C)C` as the compound, how does the “activity change, negative = inhibition” value read?
A: inactive: 36.2%

Q: For `CCCc1nc2ccccc2c(C(=O)N(CC)CC(=O)NCc2cccs2)c1CC`, which Potency is on record?
A: inconclusive: 44.7 µM [inhibitor, partial curve, poor fit]

Q: `CC(OC(=O)CCc1ccccc1)C(=O)Nc1ccc(Cl)cn1` (stereo not given) was tested. Which Potency did it give?
A: inconclusive: 35.5 µM [inhibitor, partial curve, poor fit]

Q: For `O=C(O)c1cc(-c2ccccc2)nc2nc(N3CCCCC3)sc12`, which Potency is on record?
A: inconclusive: 50.1 µM [inhibitor, partial curve, poor fit]

Q: How did the activity change, negative = inhibition turn out when `O=C(c1ccccn1)N1CCC2(COc3ncccc3S(=O)(=O)N2)C1` (stereo not given) was run?
A: inactive: 3.19% [at 6.33 µM]

Q: Which Potency does the source give for `CCOC(=O)C1(Cc2cccc(OC)c2)CCCN(Cc2cc(OC)c(O)c(OC)c2)C1` (stereo not given) here?
A: inconclusive: 31.6 µM [inhibitor, partial curve, poor fit]

Q: For `O/N=C/c1cccc(OCc2ccccc2)c1`, which Potency is on record?
A: inconclusive: 100 µM [inhibitor, partial curve, poor fit]

Q: For `CC(=O)Nc1ccc(Sc2ccccc2C(=O)O)cn1`, which Potency is on record?
A: active: 2 µM

Q: How did the Potency turn out when `CC(=O)C1=C(O)C(=O)NC1c1ccccc1F` (stereo not given) was run?
A: inconclusive: 141 µM [inhibitor, single point]

Q: `C[C@@H]1COC(=O)[C@H](CC(=O)OC(C)(C)C)C/C=C\C[C@H](CC(=O)N(CCO)Cc2ccccc2)C(=O)N1` was tested. Which Potency did it give?
A: inconclusive: 112 µM [inhibitor, partial curve, poor fit]

Q: For `COc1ccc(NC(=O)CC2Nc3ccccc3NC2=O)c([N+](=O)[O-])c1` (stereo not given), which “activity change, negative = inhibition” value is on record?
A: inactive: 11.1%

Q: `COc1cccc(NC(=O)N(C)C[C@@H]2Oc3cc(Br)ccc3S(=O)(=O)N([C@@H](C)CO)C[C@H]2C)c1` was tested. Which Potency did it give?
A: inconclusive: 112 µM [inhibitor, single point]

Q: Which Potency does the source give for `COc1ccccc1CNc1ncnc2c1CN(C1CCCNC1)C(=O)CN2C` (stereo not given) here?
A: inconclusive: 4.03 µM [inhibitor, single point]

Q: How did the Potency turn out when `Cc1cc(C)c2cc(CN(Cc3ccco3)C(=O)NCc3ccccc3)c(=O)[nH]c2c1` was run?
A: inconclusive: 50.1 µM [inhibitor, partial curve, poor fit]

Q: How did the “activity change, negative = inhibition” value turn out when `O=C(O)CSc1nnc(-c2cccs2)n1-c1ccc(Cl)cc1` was run?
A: inactive: -61.6%

Q: With `Cc1ccc2oc(C(=O)Nc3ccnn3Cc3ccc(Cl)cc3)cc(=O)c2c1` as the compound, how does the Potency read?
A: inconclusive: 56.2 µM [inhibitor, partial curve, poor fit]

Q: How did the “activity change, negative = inhibition” value turn out when `Cc1cc(NC(=O)c2ccc(Cl)cc2)cc(C)c1OCC(=O)N1CCOCC1` was run?
A: inactive: -2.79%

Q: Which Potency does the source give for `CCCCCCCCN1C(=O)[C@H](CC(=O)NCC2CCCCC2)C[C@@]2(C(=O)OCC)CCC=C12` here?
A: inconclusive: 100 µM [inhibitor, partial curve, poor fit]

Q: `COc1ccc(C2Nc3ccccc3C(=O)N2c2ccccc2)cc1CN1CCOCC1` (stereo not given) was tested. Which Potency did it give?
A: inconclusive: 112 µM [inhibitor, partial curve, poor fit]

Q: How did the “activity change, negative = inhibition” value turn out when `CN(Cc1ccsc1)C(=O)CC1CCCC1` was run?
A: inactive: 11.9%

Q: `O=C(c1ccc(Cl)cc1)N1CCC2(C1)C(=O)N(CCc1ccccc1)c1ccccc12` (stereo not given) was tested. Which Potency did it give?
A: inconclusive: 79.4 µM [inhibitor, partial curve, poor fit]

Q: Which Potency does the source give for `CC1=C(CC(=O)O)c2cc(F)ccc2C1=Cc1ccc(S(C)=O)cc1` (stereo not given) here?
A: inconclusive: 8.63 µM [inhibitor, partial curve, poor fit]

Q: How did the “activity change, negative = inhibition” value turn out when `C[C@@]12O[C@@H](C[C@]1(O)CO)n1c3ccccc3c3c4c(c5c6ccccc6n2c5c31)CNC4=O` was run?
A: inactive: -14% [at 57.4 µM]

Q: Which Potency does the source give for `COCCOC(=O)C1=C(C)N(c2ccccc2)C(=S)NC1c1ccccc1C(F)(F)F` (stereo not given) here?
A: inconclusive: 44.7 µM [inhibitor, partial curve, poor fit]

Q: For `COC(=O)c1cc2occc2n1Cc1nc(-c2ccc(C)cc2)oc1C`, which Potency is on record?
A: inconclusive: 44.7 µM [inhibitor, partial curve]

Q: For `Cc1ccc(C(=O)N2CC(=O)Nc3ccc(F)cc3C2c2ccccc2)cc1` (stereo not given), which Potency is on record?
A: inconclusive: 79.4 µM [inhibitor, partial curve, poor fit]

Q: How did the Potency turn out when `Cc1nc2c(C(=O)NC(C)c3ccccc3)cnn2c(C)c1Cc1ccccc1` (stereo not given) was run?
A: inconclusive: 126 µM [inhibitor, partial curve, poor fit]

Q: For `CCN(CC)C(=S)SC1=CCS(=O)(=O)C1`, which “activity change, negative = inhibition” value is on record?
A: inactive: -32.9%

Q: How did the Potency turn out when `COc1ccc(CN(CC(=O)NC2CCCC2)C(=O)c2ccc(-c3ccccc3)[nH]2)cc1` was run?
A: inconclusive: 50.1 µM [inhibitor, partial curve, poor fit]

Q: With `COc1cccc(OC)c1OCCCNC1CCCC1` as the compound, how does the Potency read?
A: inconclusive: 1.78 µM [inhibitor, partial curve, poor fit]

Q: `COc1ccc(CCN2CC(C(=O)OC(C)C(=O)Nc3ccc(NC(C)=O)cc3)CC2=O)cc1OC` (stereo not given) was tested. Which Potency did it give?
A: inconclusive: 0.447 µM [inhibitor, full curve, poor fit]

Q: How did the “activity change, negative = inhibition” value turn out when `CC(=O)c1cnc2c(C(=O)O)cnn2c1C` was run?
A: inactive: -18.9%

Q: For `COc1ccc(Nc2cnc3ccc(-c4ccccc4OC)nn23)cc1`, which Potency is on record?
A: inconclusive: 126 µM [inhibitor, single point]

Q: For `COCC(=O)Nc1cc(C(=O)N2CCCCC2c2nccn2C)cc2nc(-c3ccccc3)n(C)c12` (stereo not given), which Potency is on record?
A: inconclusive: 126 µM [inhibitor, single point]

Q: With `Cc1nc(N2CCN(C)CC2)[nH]c(=O)c1Cc1cccc2ccccc12` as the compound, how does the Potency read?
A: inconclusive: 89.1 µM [inhibitor, single point]

Q: With `CC(C)Oc1ccc(N2CC(C(=O)Nc3ccccc3F)CC2=O)cc1` (stereo not given) as the compound, how does the Potency read?
A: inconclusive: 17.8 µM [inhibitor, partial curve, poor fit]

Q: Which “activity change, negative = inhibition” value does the source give for `CCNc1ncc2nc(-c3cn(C)c4ccccc34)c(=O)n(-c3ccc(OC)cc3)c2n1` here?
A: inactive: 0%

Q: `COc1cc(/C=C2\NC(=O)NC2=O)cc(Br)c1OCC(=O)O` was tested. Which Potency did it give?
A: inconclusive: 50.1 µM [inhibitor, partial curve]

Q: For `Oc1ccccc1Nc1ncnc2c1oc1ccccc12`, which Potency is on record?
A: inconclusive: 35.5 µM [inhibitor, single point]

Q: How did the Potency turn out when `CC(c1n[nH]c(=S)n1-c1ccc(Cl)cc1)N(C)C` (stereo not given) was run?
A: inconclusive: 44.7 µM [inhibitor, partial curve, poor fit]
